PubChem BioAssay AID652272 – Drosophila RNAi Screening Center | 2013

- Purpose: 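Finding fly genes that regulate Hedgehog signal transduction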 (primary screen)
- Cells: Drosophila clone 8 (Cl8) cells
- Reagents: long dsRNA against Drosophila genes
- Detection: 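Firefly light from a Hedgehog-responsive ptc promoter reporter and Renilla reference light, both read on a plate reader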
- Scale: firefly Hh reporter signal: higher = more ptc reporter light; Renilla reference signal: higher = more Renilla control light
- Rule for the call: 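Called a hit if the two-replicate mean z-score lies below -2 or above +3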
- Meaning of the calls: active = hit: reporter lowered or raised; inactive = not a hit
The deposit covers about 21,000 reagents; shown is an unselected part of those with a known target gene and a result. Over the whole deposit, 503 (2.4%) got an active call. 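Raw plate light values, not normalised; calls rest on replicate z-scores that were not deposited; hits include reporter decreases as well as increases.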 No sequences are given here. The record does not give: the amount of reagent, the time to read-out.

The opening 3 entries, ahead of the listing:
gene | DRSC id | firefly Hh reporter signal, replicate 1 | firefly Hh reporter signal, replicate 2 | firefly Hh reporter signal, replicate 3 | Renilla reference signal, replicate 1 | Renilla reference signal, replicate 2 | Outcome
mRpS23 (mitochondrial ribosomal protein S23) | DRSC01348 | 4.30e5 | 2.01e5 | – | 22073 | 8960 | inactive
CG6674 | DRSC10692 | 81200 | 45901 | – | 4053 | 2049 | inactive
Rpn13R (Regulatory particle non-ATPase 13-related) | DRSC18404 | 76154 | 1.97e5 | – | 2636 | 7287 | inactive

Main list, from the first entry:
gene | DRSC id | firefly Hh reporter signal, replicate 1 | firefly Hh reporter signal, replicate 2 | firefly Hh reporter signal, replicate 3 | Renilla reference signal, replicate 1 | Renilla reference signal, replicate 2 | Outcome
mRpS23 (mitochondrial ribosomal protein S23) | DRSC01348 | 4.30e5 | 2.01e5 | – | 22073 | 8960 | inactive
CG6674 | DRSC10692 | 81200 | 45901 | – | 4053 | 2049 | inactive
Rpn13R (Regulatory particle non-ATPase 13-related) | DRSC18404 | 76154 | 1.97e5 | – | 2636 | 7287 | inactive
sesB (stress-sensitive B) | DRSC20371 | 84324 | 2.07e5 | – | 2139 | 6961 | inactive
CG17404 | DRSC15234 | 1.05e5 | 2.02e5 | – | 2262 | 5702 | inactive
CG6527 | DRSC10659 | 8135 | 76386 | 69248 | 6488 | 5588 | inactive
CG3706 | DRSC18649 | 1.24e5 | 3.33e5 | – | 4469 | 13565 | inactive
Arc1 (Activity-regulated cytoskeleton associated protein 1) | DRSC06159 | 1.06e5 | 7.21e5 | 50576 | 3913 | 46538 | inactive
qkr58E-1 (quaking related 58E-1) | DRSC04709 | 52749 | 53528 | – | 2360 | 2112 | inactive
Nckx30C | DRSC02686 | 98000 | 65829 | – | 2403 | 5306 | inactive
Nckx30C | DRSC02687 | 1.20e5 | 89648 | – | 3244 | 6656 | inactive
Nckx30C | DRSC02688 | 99648 | 75545 | – | 2401 | 5472 | inactive
Nckx30C | DRSC02689 | 74848 | 50048 | – | 2384 | 4673 | inactive
ppk23 (pickpocket 23) | DRSC20110 | 71658 | 2.40e5 | – | 1323 | 7373 | inactive
CG9864 | DRSC07346 | 74569 | 53452 | – | 2123 | 3832 | inactive
Smyd4-2 (SET and MYND domain containing, class 4, member 2) | DRSC10126 | 95413 | 51801 | 41893 | 6156 | 2388 | inactive
vir-1 (virus-induced RNA 1) | DRSC02501 | 84945 | 41689 | – | 2181 | 3969 | inactive
vir-1 (virus-induced RNA 1) | DRSC02863 | 55968 | 23628 | – | 1897 | 2628 | inactive
TORIP (Torsin interacting protein) | DRSC10104 | 60605 | 46560 | – | 3218 | 2536 | inactive
Upf2 | DRSC18218 | 1.61e5 | 4.37e5 | – | 3145 | 7708 | active
eIF3b (eukaryotic translation initiation factor 3 subunit b) | DRSC06900 | 50344 | 28929 | – | 1846 | 2984 | inactive
Pdk (Pyruvate dehydrogenase kinase) | DRSC07504 | 61622 | 47568 | – | 2487 | 1837 | inactive
zfh1 (Zn finger homeodomain 1) | DRSC14014 | 5.82e5 | 2.72e5 | – | 28314 | 5452 | inactive
zfh1 (Zn finger homeodomain 1) | DRSC17098 | 1.13e5 | 1.21e5 | – | 1667 | 2075 | active
